PubChem BioAssay AID652272, Drosophila RNAi Screening Center – 2013
The deposit covers about 21,000 reagents; below is an unselected part of those with a known target gene and a result. Over the whole deposit, 503 (2.4%) are marked active. 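Raw plate light values, not normalised; calls rest on replicate z-scores that were not deposited; hits include reporter decreases as well as increases.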 Reagents against one gene are numbered here. Names joined by + are all predicted targets of the reagent. The record does not give: the amount of reagent, the time to read-out.

Screen: 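Finding fly genes that regulate Hedgehog signal transduction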 (primary screen)
Cells: Drosophila clone 8 (Cl8) cells
Reagents: long dsRNA against Drosophila genes
Measurement: 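Firefly light from a Hedgehog-responsive ptc promoter reporter and Renilla reference light, both read on a plate reader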
Direction: firefly Hh reporter signal: higher = more ptc reporter light; Renilla reference signal: higher = more Renilla control light
Hit rule: 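Hit when the z-score averaged over two replicates is under -2 or over +3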
Calls: active = hit: reporter lowered or raised; inactive = not a hit

gene | reagent no. | firefly Hh reporter signal, replicate 1 | firefly Hh reporter signal, replicate 2 | firefly Hh reporter signal, replicate 3 | Renilla reference signal, replicate 1 | Renilla reference signal, replicate 2 | activity call
CG7653 | 1 | 83761 | 65478 | – | 2504 | 5992 | inactive
CG3566 | 1 | 84780 | 2.47e5 | – | 2289 | 9552 | inactive
CG42455 + vnc | 1 | 1.09e5 | 77146 | – | 5380 | 3493 | inactive
ScpX | 1 | 1.18e5 | 98293 | – | 4994 | 4649 | inactive
Ctl1 (Choline transporter-like 1) | 1 | 84930 | 36967 | – | 1904 | 372 | inactive
SP1173 | 1 | 47017 | 55668 | – | 2306 | 2034 | inactive
E23 (Early gene at 23) | 1 | 42744 | 17237 | – | 1322 | 1744 | inactive
E23 (Early gene at 23) | 2 | 79861 | 44704 | – | 2344 | 4995 | inactive
Polr3C (RNA polymerase III subunit C) | 1 | 1.39e5 | 1.06e5 | – | 6640 | 4725 | inactive
CG15386 + CG42371 | 1 | 1.09e5 | 87444 | – | 2708 | 2234 | inactive
CG13458 | 1 | 94859 | 73896 | – | 3597 | 3121 | inactive
Rab9Db + Rab9Fa | 1 | 64899 | 2.44e5 | – | 1392 | 9128 | inactive
Gr85a (Gustatory receptor 85a) | 1 | 1.31e5 | – | – | 1888 | – | inactive
Fadd (Fas-associated death domain) | 1 | 8.20e5 | 1.60e5 | – | 42791 | 11608 | inactive
spaw (spacewatch) | 1 | 74905 | 56074 | – | 1872 | 4236 | inactive
Kat60 (Katanin 60) | 1 | 84104 | 83254 | – | 3757 | 2384 | inactive
CARPA (Carbonic anhydrase-related protein A) | 1 | 1.20e5 | 3.12e5 | – | 3635 | 13274 | inactive
CG17999 | 1 | 1.20e5 | 50962 | – | 4386 | 1874 | inactive
CG34347 | 1 | 4.70e5 | 1.84e5 | – | 23084 | 3900 | inactive
CG34347 | 2 | 73664 | 50535 | – | 3568 | 550 | inactive
CG34347 | 3 | 98777 | 53192 | – | 3875 | 689 | inactive
CG34347 | 4 | 1.80e5 | 9268 | – | 866 | 866 | active
Osi5 (Osiris 5) | 1 | 88857 | 1.08e5 | – | 3328 | 2930 | inactive
CG10713 | 1 | 42368 | 30805 | 43090 | 2770 | 2464 | inactive
CG6937 | 1 | 3.47e5 | 70403 | – | 25169 | 2778 | active
CG11668 | 1 | 1.02e5 | 87340 | – | 3208 | 2547 | inactive
Upf3 | 1 | 1.32e5 | 1.00e5 | – | 3289 | 2400 | active
Ciz1 (Ciz1 zinc finger protein) | 1 | 55762 | 8513 | 13720 | 2906 | 1938 | active
Asciz (ASCIZ zinc finger protein) | 1 | 80499 | 29028 | – | 2016 | 739 | inactive
CG8155 | 1 | 1.36e5 | 1.31e5 | – | 5728 | 4944 | inactive
MFS10 (Major Facilitator Superfamily Transporter 10) | 1 | 95757 | 69285 | – | 2440 | 1825 | inactive
Taldo (Transaldolase) | 1 | 70272 | 61863 | – | 3376 | 2489 | inactive
lwr (lesswright) | 1 | 88640 | 68409 | – | 4242 | 2944 | inactive
Ctr1B + Poxm | 1 | 83176 | 1.13e5 | – | 3648 | 3300 | inactive
CG32248 | 1 | 1.52e5 | 2.13e5 | – | 4384 | 9388 | inactive
CG8908 | 1 | 78272 | 64072 | – | 1984 | 4205 | inactive
Ublcp1 | 1 | 1.11e5 | 57307 | – | 4948 | 2547 | inactive
Cyp318a1 (Cytochrome P450 318a1) | 1 | 94784 | 3.05e5 | – | 2656 | 10752 | inactive
CG15482 | 1 | 1.22e5 | 57750 | – | 3556 | 4683 | inactive

In a second layout: results already given
{"gene":"CARPA (Carbonic anhydrase-related protein A)","reagent no.":1,"firefly Hh reporter signal, replicate 1":1.20e5,"firefly Hh reporter signal, replicate 2":3.12e5,"Renilla reference signal, replicate 1":3635,"Renilla reference signal, replicate 2":13274,"activity call":"inactive"}
{"gene":"CG17999","reagent no.":1,"firefly Hh reporter signal, replicate 1":1.20e5,"firefly Hh reporter signal, replicate 2":50962,"Renilla reference signal, replicate 1":4386,"Renilla reference signal, replicate 2":1874,"activity call":"inactive"}
{"gene":"CG34347","reagent no.":1,"firefly Hh reporter signal, replicate 1":4.70e5,"firefly Hh reporter signal, replicate 2":1.84e5,"Renilla reference signal, replicate 1":23084,"Renilla reference signal, replicate 2":3900,"activity call":"inactive"}
